Our source for the binding values is publication PMC10805788.

No constants are given. Whether binding was seen depends on the method and setting. Binding seen in cells or lysates may run through a third protein. A yes stands for co-enrichment or nearness to the bait. Other partners may have been found. For part of these data: A no says only that the protein was not detected with the bait. Where a sequence is shown, tags or fusion partners need not be part of it.

Experiment [1] has as its target T1, Rh1-TurboID fusion protein (Rh1::TbID) (Drosophila melanogaster) (UniProt P06002).
T1 sequence: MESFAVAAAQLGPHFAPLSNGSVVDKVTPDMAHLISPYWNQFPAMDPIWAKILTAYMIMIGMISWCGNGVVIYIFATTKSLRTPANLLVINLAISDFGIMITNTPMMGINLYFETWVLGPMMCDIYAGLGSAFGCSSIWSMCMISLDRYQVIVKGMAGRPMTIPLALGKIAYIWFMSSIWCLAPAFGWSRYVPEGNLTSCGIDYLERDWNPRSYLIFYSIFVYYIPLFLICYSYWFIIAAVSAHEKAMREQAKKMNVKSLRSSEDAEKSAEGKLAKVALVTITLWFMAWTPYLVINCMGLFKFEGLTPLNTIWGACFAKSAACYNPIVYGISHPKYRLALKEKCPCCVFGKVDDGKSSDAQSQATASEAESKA
The experiment in a line: proximity labelling; Rh1::TbID^wt flies against wild-type control, white light 12 h; membrane proteins (RIPA) pulled down with streptavidin magnetic beads, SDS-PAGE, silver-stained bands excised, in-gel trypsin digest, LC-MS/MS; at least five peptides and >= threefold more peptides than control; two experiments.

Experiment [2] deals with T1, Rh1-TurboID fusion protein (Rh1::TbID) (Drosophila melanogaster). The experiment in a line: condition: only flies kept in the dark (rhodopsin not light-activated); proximity labelling; as a1, but flies kept in the dark (no metarhodopsin); streptavidin-HRP blot of head extracts.
Experiment [3] shares this target. Kind of experiment: proximity labelling; TurboID fused to Rh1 in R1-6 photoreceptors of living flies (100 uM biotin in the food); flies illuminated with blue light (2 min to 4 h; native Rh1 band also seen in the dark); head extracts or soluble/membrane fractions on 12% SDS gels, blots probed with streptavidin-HRP; backgrounds wild type, ninaE17, arr2-3, ninaA2.
The target is the same in experiment [4]. Kind of experiment: proximity labelling; Rh1::TbID flies against wild-type control; streptavidin pull-down of soluble and membrane proteins, on-bead trypsin digest, LC-MS/MS with label-free quantification, triplicate; p < 0.05 and fold change > 2.
Experiment [5] has the same target. The experiment in a line: proximity labelling; Rh1::TbID^wt flies against wild-type control, white light 12 h; membrane proteins (RIPA) pulled down with streptavidin magnetic beads, SDS-PAGE, silver-stained bands excised, in-gel trypsin digest, LC-MS/MS; at least five peptides and >= threefold more peptides than control; two experiments. The source holds these as a separate data set.

As to ER Membrane Protein Complex 1 (EMC1), the binding entry in experiment [1] is given as “binds”.

B1: arrestin 2 (protein, UniProt P19107 1-401)
chain: MVVSVKVFKKATPNGKVTFYLGRRDFIDHIDYCDPVDGVIVVEPDYLKNRKVFGQLATTYRYGREEDEVMGVKFSKELILCREQIVPMTNPNMEMTPMQEKLVRKLGSNAYPFTFHFPPNSPSSVTLQQEGDDNGKPLGVEYTIRAFVGDSEDDRQHKRSMVSLVIKKLQYAPLNRGQRLPSSLVSKGFTFSNGKISLEVTLDREIYYHGEKTAATVQVSNNSKKSVKSIKCFIVQHTEITMVNAQFSKHVAQLETKEGCPITPGANLTKTFYLIPLAANNKDRHGIALDGHLKDEDVNLASSTMVQEGKSTGDACGIVISYSVRIKLNCGTLGGEMQTDVPFKLLQPAPGTIEKKRSNAMKKMKSIEQHRNVKGYYQDDDDNIVFEDFAKMRMNNVNMAD
For B1, the binding entry is “no binding” in experiment [2], “binds” in experiment [3], “binds” in experiment [4] and “binds” in experiment [5].

B2: Oxysterol Binding Protein Orp8 (protein, UniProt B7Z0M9 1-957)
chain: MNLLQRIANWASDNRDGNVADKSAADAAKLNRKESYKAQRKNYRREKKRVASELMNSLQDPAVIVLADWLKVRGTLKSWTKLWCVLKPGLLLIYKSQKTKSSHWVGTVMLTSCQVIERPSKKDGFCFKLFHPLEQSIWAPRGPDKETIGAVVQPLPTAYLIFRAPSQAAGKCWMDALELSLRCSALLLRSNSSTGTAPTSSYIGEPLPVSHETQWSEADYEKHFNDHGKWAQFLALPSAEVDTSRSDTSLSAPRTPTPLLQQLYTSAVSNWERTKRLPRFGHQSEQRKTSYSDASSAEQGVGVGLSLLQRKRRHLSPMSKSMSLGATLCNSSSSEDEDEGYNHSQTGLRPVSAPPDCLMMPRFRLNVKDLDADSQNEAPNAVMSGLESESESDPAEPAQDDVVDQQCVETSYVPFTEEEFGEQGEQVEELAEENKSLIWCIVKQVRPGMDLSKVVLPTFILEPRSFLDKLSDSYYHADLLSKAVQEDDAFTRMKLVVQWYLSSFYKKPKGLKKPYNPILGERFRCYWQHPSGSRTFYIAEQVSHHPPVSAFYVTNREDGFSITCSILAKSKFYGNSTSAVLEGAATMTLLPRGECYTATTPYAHCKGILMGTLSMELGGKINIECENTGYRTELEFKLKPFLGGADATNVVVGKIKLGKETLATINGHWDKECRVKDSKTGEETVLFKVDAETRSKRLTRYMVPLDLQEANESQRLWQRVSEAIANEDQVAATEEKTVLEERQRADAKERLSSDSVHMPDLFELDSYGQWLYKYADLRPWDSRNDVRQYECQFKVLTQTRHKSVPIVHGAEMIHPLRSSIETLSRTQRQSPAGQPLPPGGSAVPKAKNKSLVLAPRDTNSDSSQSPQGAVKRSSSSAIKQLALAVDQVNRVLEQHTRQLNEISQRLERMQYSPPPSSMSAHSLHMLGGGVSQSTVIKSLIYALIGLAFSLILRWLFK
On to B2, for which the binding result in experiment [5] is given as “binds”.
